Assay results taken from article PMC12255702.
Where two headings read alike, the source gives them in different places. These are yes or no findings as the source states them, for the method shown. Binding seen in cells or lysates may run through a third protein. Some binding calls cover weakened binding; strength is not graded here. For part of these data: Where a sequence is shown, tags or fusion partners need not be part of it. Values belong to the molecule of their own block, whether it stands above or below them.

By UniProt entry, the sequences of proteins in these tests, tags left out.
UniProt Q96BT3: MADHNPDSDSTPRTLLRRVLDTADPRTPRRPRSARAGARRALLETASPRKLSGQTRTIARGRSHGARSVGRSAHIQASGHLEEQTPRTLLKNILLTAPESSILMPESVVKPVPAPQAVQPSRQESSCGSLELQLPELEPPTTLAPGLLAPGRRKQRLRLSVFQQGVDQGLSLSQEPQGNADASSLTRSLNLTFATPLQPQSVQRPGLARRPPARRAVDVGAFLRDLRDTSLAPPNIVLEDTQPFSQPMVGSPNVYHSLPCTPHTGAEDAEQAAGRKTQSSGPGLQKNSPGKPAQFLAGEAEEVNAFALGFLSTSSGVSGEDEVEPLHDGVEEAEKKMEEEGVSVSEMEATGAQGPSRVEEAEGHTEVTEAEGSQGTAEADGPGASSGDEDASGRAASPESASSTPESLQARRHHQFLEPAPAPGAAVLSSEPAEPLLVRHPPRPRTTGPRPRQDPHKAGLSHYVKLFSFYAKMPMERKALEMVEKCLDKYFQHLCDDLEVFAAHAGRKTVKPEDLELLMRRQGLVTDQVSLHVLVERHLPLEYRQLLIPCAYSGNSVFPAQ

Tests used:
[1] = biological target: T1, endogenous GCLC (human (endogenous in RCC cell lines)) (UniProt P48506); assay: co-IP; RCC cells with overexpression of CENPT; GCLM bound to GCLC compared
T1 sequence: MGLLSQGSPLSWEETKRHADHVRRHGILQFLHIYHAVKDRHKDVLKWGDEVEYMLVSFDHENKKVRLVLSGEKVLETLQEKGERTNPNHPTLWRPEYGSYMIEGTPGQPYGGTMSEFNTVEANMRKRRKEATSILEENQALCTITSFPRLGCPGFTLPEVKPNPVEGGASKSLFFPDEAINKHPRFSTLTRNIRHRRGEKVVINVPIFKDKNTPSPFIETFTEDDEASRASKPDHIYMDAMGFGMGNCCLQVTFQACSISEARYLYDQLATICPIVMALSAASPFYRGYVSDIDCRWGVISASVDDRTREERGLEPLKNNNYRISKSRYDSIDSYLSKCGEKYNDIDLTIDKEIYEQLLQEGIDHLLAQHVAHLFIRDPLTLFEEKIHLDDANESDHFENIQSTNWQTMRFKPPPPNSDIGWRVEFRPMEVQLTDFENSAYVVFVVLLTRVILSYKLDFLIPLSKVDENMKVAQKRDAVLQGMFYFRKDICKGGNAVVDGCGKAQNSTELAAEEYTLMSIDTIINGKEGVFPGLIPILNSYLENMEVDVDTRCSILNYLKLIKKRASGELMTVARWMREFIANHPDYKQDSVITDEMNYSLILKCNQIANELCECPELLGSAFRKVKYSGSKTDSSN

[2] = biological target: T2, Myc-GCLC middle fragment, amino acids 213-424 (UniProt P48506); assay: co-IP; Flag-tagged CENPT (full length or fragments) and Myc-tagged GCLC (full length or fragments) co-expressed in 293T cells; Co-IP and Western blot
T2 sequence: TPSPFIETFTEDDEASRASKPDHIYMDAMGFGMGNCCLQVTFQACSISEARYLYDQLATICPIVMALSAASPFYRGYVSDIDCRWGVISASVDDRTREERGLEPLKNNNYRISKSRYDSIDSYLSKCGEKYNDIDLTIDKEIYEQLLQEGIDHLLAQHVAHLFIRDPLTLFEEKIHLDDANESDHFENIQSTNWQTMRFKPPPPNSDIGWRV

[3] = biological target: T1, endogenous GCLC (human (endogenous in RCC cell lines)); assay: co-IP; RCC cells with overexpression of CENPT; GCLM bound to GCLC compared; remark: listed apart in the source
[4] = biological target: Flag-tagged Centromere Protein T (CENPT), full length (UniProt Q96BT3); assay: co-IP; Flag-tagged CENPT (full length or fragments) and Myc-tagged GCLC (full length or fragments) co-expressed in 293T cells; Co-IP and Western blot
[5] = biological target: endogenous CENPT (human (endogenous in RCC cell lines)) (UniProt Q96BT3); assay: co-IP; endogenous proteins in RCC cells; Co-IP and Western blot
GST-CENPT = GST-CENPT (UniProt Q96BT3); assay: pull-down; in vitro; GST-CENPT captured by glutathione-resin, HIS-GCLC probed by western blotting; the methods describe His-tagged bait on Ni-NTA beads and prey in cell lysates

Molecule: CENPT overexpressed in RCC cells (from UniProt Q96BT3 1-561)
binding [1]: binds

Molecule: Flag-tagged Centromere Protein T (CENPT), full length (from UniProt Q96BT3 1-561)
binding [2]: binds

B2: Myc-tagged gamma-glutamyl-cysteine ligase catalytic subunit (GCLC), full length (protein, UniProt P48506 1-637)
chain: MGLLSQGSPLSWEETKRHADHVRRHGILQFLHIYHAVKDRHKDVLKWGDEVEYMLVSFDHENKKVRLVLSGEKVLETLQEKGERTNPNHPTLWRPEYGSYMIEGTPGQPYGGTMSEFNTVEANMRKRRKEATSILEENQALCTITSFPRLGCPGFTLPEVKPNPVEGGASKSLFFPDEAINKHPRFSTLTRNIRHRRGEKVVINVPIFKDKNTPSPFIETFTEDDEASRASKPDHIYMDAMGFGMGNCCLQVTFQACSISEARYLYDQLATICPIVMALSAASPFYRGYVSDIDCRWGVISASVDDRTREERGLEPLKNNNYRISKSRYDSIDSYLSKCGEKYNDIDLTIDKEIYEQLLQEGIDHLLAQHVAHLFIRDPLTLFEEKIHLDDANESDHFENIQSTNWQTMRFKPPPPNSDIGWRVEFRPMEVQLTDFENSAYVVFVVLLTRVILSYKLDFLIPLSKVDENMKVAQKRDAVLQGMFYFRKDICKGGNAVVDGCGKAQNSTELAAEEYTLMSIDTIINGKEGVFPGLIPILNSYLENMEVDVDTRCSILNYLKLIKKRASGELMTVARWMREFIANHPDYKQDSVITDEMNYSLILKCNQIANELCECPELLGSAFRKVKYSGSKTDSSN
binding [4]: binds

B4: HIS-GCLC (protein, UniProt P48506 1-637)
chain: MGLLSQGSPLSWEETKRHADHVRRHGILQFLHIYHAVKDRHKDVLKWGDEVEYMLVSFDHENKKVRLVLSGEKVLETLQEKGERTNPNHPTLWRPEYGSYMIEGTPGQPYGGTMSEFNTVEANMRKRRKEATSILEENQALCTITSFPRLGCPGFTLPEVKPNPVEGGASKSLFFPDEAINKHPRFSTLTRNIRHRRGEKVVINVPIFKDKNTPSPFIETFTEDDEASRASKPDHIYMDAMGFGMGNCCLQVTFQACSISEARYLYDQLATICPIVMALSAASPFYRGYVSDIDCRWGVISASVDDRTREERGLEPLKNNNYRISKSRYDSIDSYLSKCGEKYNDIDLTIDKEIYEQLLQEGIDHLLAQHVAHLFIRDPLTLFEEKIHLDDANESDHFENIQSTNWQTMRFKPPPPNSDIGWRVEFRPMEVQLTDFENSAYVVFVVLLTRVILSYKLDFLIPLSKVDENMKVAQKRDAVLQGMFYFRKDICKGGNAVVDGCGKAQNSTELAAEEYTLMSIDTIINGKEGVFPGLIPILNSYLENMEVDVDTRCSILNYLKLIKKRASGELMTVARWMREFIANHPDYKQDSVITDEMNYSLILKCNQIANELCECPELLGSAFRKVKYSGSKTDSSN
binding (GST-CENPT): binds

Continued, values first:

binding [3]: binds
B1: glutamate-cysteine ligase modifier subunit (GCLM) (protein, UniProt P48507 1-274)
chain: MGTDSRAAKALLARARTLHLQTGNLLNWGRLRKKCPSTHSEELHDCIQKTLNEWSSQINPDLVREFPDVLECTVSHAVEKINPDEREEMKVSAKLFIVESNSSSSTRSAVDMACSVLGVAQLDSVIIASPPIEDGVNLSLEHLQPYWEELENLVQSKKIVAIGTSDLDKTQLEQLYQWAQVKPNSNQVNLASCCVMPPDLTAFAKQFDIQLLTHNDPKELLSEASFQEALQESIPDIQAHEWVPLWLLRYSVIVKSRGIIKSKGYILQAKRRGS

binding [5]: binds
B3: endogenous GCLC (protein, UniProt P48506 1-637)
chain: MGLLSQGSPLSWEETKRHADHVRRHGILQFLHIYHAVKDRHKDVLKWGDEVEYMLVSFDHENKKVRLVLSGEKVLETLQEKGERTNPNHPTLWRPEYGSYMIEGTPGQPYGGTMSEFNTVEANMRKRRKEATSILEENQALCTITSFPRLGCPGFTLPEVKPNPVEGGASKSLFFPDEAINKHPRFSTLTRNIRHRRGEKVVINVPIFKDKNTPSPFIETFTEDDEASRASKPDHIYMDAMGFGMGNCCLQVTFQACSISEARYLYDQLATICPIVMALSAASPFYRGYVSDIDCRWGVISASVDDRTREERGLEPLKNNNYRISKSRYDSIDSYLSKCGEKYNDIDLTIDKEIYEQLLQEGIDHLLAQHVAHLFIRDPLTLFEEKIHLDDANESDHFENIQSTNWQTMRFKPPPPNSDIGWRVEFRPMEVQLTDFENSAYVVFVVLLTRVILSYKLDFLIPLSKVDENMKVAQKRDAVLQGMFYFRKDICKGGNAVVDGCGKAQNSTELAAEEYTLMSIDTIINGKEGVFPGLIPILNSYLENMEVDVDTRCSILNYLKLIKKRASGELMTVARWMREFIANHPDYKQDSVITDEMNYSLILKCNQIANELCECPELLGSAFRKVKYSGSKTDSSN
